The text below walks through data of paper PMC6238398, “The crystal structure of Staufen1 in complex with a physiological RNA sheds light on substrate selectivity” (Life Science Alliance, 2018).

The target in data set [1] is T1, dStau wt (Drosophila melanogaster) (UniProt P25159).
T1 sequence (looked up): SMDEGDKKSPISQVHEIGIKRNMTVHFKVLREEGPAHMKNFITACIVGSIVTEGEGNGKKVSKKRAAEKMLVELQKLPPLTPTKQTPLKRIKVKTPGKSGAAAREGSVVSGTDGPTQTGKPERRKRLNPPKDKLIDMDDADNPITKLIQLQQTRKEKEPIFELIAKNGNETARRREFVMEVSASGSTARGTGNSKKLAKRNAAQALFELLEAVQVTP
The data set is described as follows: fluorescence anisotropy. Conditions: FA: 10 nM 5'-FAM RNA, 20 mM Hepes pH 7.5, 150 mM KCl, RT (19-21 C); recombinant protein; residues 570-786; label: 5'-6-FAM.

The target in data set [2] is T2, dStau Q718A (Drosophila melanogaster) (UniProt P25159).
T2 sequence (looked up): T1 sequence (looked up) with Q149A
The data set is described as follows: fluorescence anisotropy. Conditions: FA: 10 nM 5'-FAM RNA, 20 mM Hepes pH 7.5, 150 mM KCl, RT (19-21 C); recombinant protein; residues 570-786; label: 5'-6-FAM. A general note: Polarisation of emitted light reports the rotation of a fluorescent probe.

Changes are numbered by the printed parent chain. For some assays here: The comparison behind a weaker result is the experiment's own reference, which may not be listed here. Tags and fusion partners may be left off the protein sequences shown. For some assays here: For at least one entry, the source does not settle the construct or the ends of the probe. For some assays here: At least one verdict was read from the data and is not stated in words by the source.

As for “CGCUAUUCGCCUUAGAUGUAUCUGGGUGGCUGCUCCACUAAAGCCCGGGAAUAUGCAACCAGUUACAUUUGAGGCCAUUUGGGCUUAAGCG [bcd III]”, the binding result is reported as “binds” in data set [1] and “binds more weakly” in data set [2].
